The record followed here is patent US20210244713A1, “ANHYDROUS COMPOSITIONS OF mTOR INHIBITORS AND METHODS OF USE” (PALVELLA THERAPEUTICS, INC., priority 2018, published 2021).

The nature of the series: Solubility of rapamycin in solvents and solvent combination. The note with it: IPA 15.00 wt %, PEG 400 60.00 wt %, DIA 15.00 wt %, glycerol 10.00 wt %.

Structures are written as SMILES.

For the compound `CO[C@H]1C[C@@H]2CC[C@@H](C)[C@@](O)(O2)C(=O)C(=O)N2CCCC[C@H]2C(=O)O[C@H]([C@H](C)C[C@@H]2CC[C@@H](O)[C@H](OC)C2)CC(=O)[C@H](C)/C=C(\C)[C@@H](O)[C@@H](OC)C(=O)[C@H](C)C[C@H](C)/C=C/C=C/C=C/1C` [Rapamycin, rapamycin (sirolimus)], the “Rapamycin solubility in solvent system (maximum rapamycin solubility in combined solvents)” value is recorded as 4.97 wt %.
